Measurements taken from PMC8635433.
No constants are given. Whether binding was seen depends on the method and setting. Some results given as binding are weak or reduced against the parent protein; the word gives no strength.

Protein sequences, listed by entry. Tags and fused reporters are not part of them. Residues count along the entry.
UniProt P78310, residues 20-365: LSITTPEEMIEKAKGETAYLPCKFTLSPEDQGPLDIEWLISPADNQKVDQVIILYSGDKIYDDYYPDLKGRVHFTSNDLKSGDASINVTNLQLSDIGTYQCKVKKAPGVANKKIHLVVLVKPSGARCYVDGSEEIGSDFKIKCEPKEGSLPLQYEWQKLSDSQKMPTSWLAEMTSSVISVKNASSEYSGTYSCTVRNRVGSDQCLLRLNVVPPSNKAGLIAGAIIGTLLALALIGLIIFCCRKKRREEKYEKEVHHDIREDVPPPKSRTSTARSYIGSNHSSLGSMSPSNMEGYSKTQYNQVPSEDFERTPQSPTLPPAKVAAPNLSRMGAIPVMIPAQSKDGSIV

Molecular target: CAR on CHO-CAR cells (UniProt P78310)
Experiment: flow cytometry on cells; antibody binding inhibition: serial dilutions of fiber knob (0.00001 to 100 μg per 10^5 cells) on CHO-CAR or CHO-BC1 cells, 30 min on ice, then anti-CAR RmcB or anti-CD46 MEM-258 and Alexa Fluor 488 secondary antibody; IC50 by nonlinear regression; only the binder purified

B1: HAdV-C5 fiber knob protein (domain or fragment, UniProt P11818 386-581)
chain: TGAITVGNKNNDKLTLWTTPAPSPNCRLNAEKDAKLTLVLTKCGSQILATVSVLAVKGSLAPISGTVQSAHLIIRFDENGVLLNNSFLDPEYWNFRNGDLTEGTAYTNAVGFMPNLSAYPKSHGKTAKSNIVSQVYLNGDKTKPVTLTITLNGTQETGDTTPSAYSMSFSWDWSGHNYINEIFATSSYTFSYIAQE
  binding: binds
